One assay has as its target Myc-tagged p62 (UniProt Q13501). Put plainly: co-IP; FLAG-TRIM50#3 cells transfected with Myc-p62; total lysates IP anti-FLAG and blot anti-Myc, and IP anti-Myc and blot anti-FLAG.
The target of assay [1] is FLAG-tagged TRIM50 (UniProt Q86XT4). Described as above.
Assay [2] has as its target FLAG-Tubb2b (Tubulin beta 2B class IIb) (human) (UniProt Q9BVA1). Description: co-IP; HEK293 cells transiently expressing FLAG-Tubb2b and EGFP-TRIM50; lysates IP anti-FLAG, blot anti-GFP.
Assay [3] has as its target FLAG-tagged TRIM50 (UniProt Q86XT4). Description: pull-down; 3 µg of GST-recombinant protein mixed with 40 µg of total FLAG-TRIM50#3 cell lysate, 4°C for 2 h, then FLAG antibody for 4 h; washed four times; blot anti-GST; only the binder purified.
Assay [4] shares this target. Description: co-IP; lysates of the HEK293 FLAG-TRIM50#3 cell line, with and without MG132; IP anti-FLAG, immunoblot with HDAC6 antibody.

Chains of the proteins cited; added tags and fusions are not shown.
UniProt Q86XT4: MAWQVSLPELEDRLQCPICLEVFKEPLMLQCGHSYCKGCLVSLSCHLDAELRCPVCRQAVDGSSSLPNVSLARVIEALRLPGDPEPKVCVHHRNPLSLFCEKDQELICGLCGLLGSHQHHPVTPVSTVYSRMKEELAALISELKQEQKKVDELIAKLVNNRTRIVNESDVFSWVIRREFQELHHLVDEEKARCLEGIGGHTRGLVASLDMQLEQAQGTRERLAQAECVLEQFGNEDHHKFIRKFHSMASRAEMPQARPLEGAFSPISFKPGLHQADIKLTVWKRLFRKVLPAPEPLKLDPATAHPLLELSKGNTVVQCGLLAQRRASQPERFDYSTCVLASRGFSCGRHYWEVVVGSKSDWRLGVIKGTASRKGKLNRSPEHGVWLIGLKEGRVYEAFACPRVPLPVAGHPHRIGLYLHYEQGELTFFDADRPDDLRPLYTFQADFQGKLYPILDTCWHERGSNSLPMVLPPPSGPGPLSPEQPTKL
UniProt Q9BVA1: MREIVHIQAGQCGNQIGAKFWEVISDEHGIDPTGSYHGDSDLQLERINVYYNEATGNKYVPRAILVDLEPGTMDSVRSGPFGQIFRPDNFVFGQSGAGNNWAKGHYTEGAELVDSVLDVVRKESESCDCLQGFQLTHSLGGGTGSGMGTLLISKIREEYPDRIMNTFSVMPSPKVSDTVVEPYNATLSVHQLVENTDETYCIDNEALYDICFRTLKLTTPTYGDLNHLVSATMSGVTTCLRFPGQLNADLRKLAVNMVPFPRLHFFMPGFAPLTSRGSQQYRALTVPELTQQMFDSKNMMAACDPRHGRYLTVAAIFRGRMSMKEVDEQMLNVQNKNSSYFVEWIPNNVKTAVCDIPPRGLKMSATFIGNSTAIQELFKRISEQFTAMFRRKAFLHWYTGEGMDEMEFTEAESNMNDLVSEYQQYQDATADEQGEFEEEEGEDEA
UniProt Q9UBN7: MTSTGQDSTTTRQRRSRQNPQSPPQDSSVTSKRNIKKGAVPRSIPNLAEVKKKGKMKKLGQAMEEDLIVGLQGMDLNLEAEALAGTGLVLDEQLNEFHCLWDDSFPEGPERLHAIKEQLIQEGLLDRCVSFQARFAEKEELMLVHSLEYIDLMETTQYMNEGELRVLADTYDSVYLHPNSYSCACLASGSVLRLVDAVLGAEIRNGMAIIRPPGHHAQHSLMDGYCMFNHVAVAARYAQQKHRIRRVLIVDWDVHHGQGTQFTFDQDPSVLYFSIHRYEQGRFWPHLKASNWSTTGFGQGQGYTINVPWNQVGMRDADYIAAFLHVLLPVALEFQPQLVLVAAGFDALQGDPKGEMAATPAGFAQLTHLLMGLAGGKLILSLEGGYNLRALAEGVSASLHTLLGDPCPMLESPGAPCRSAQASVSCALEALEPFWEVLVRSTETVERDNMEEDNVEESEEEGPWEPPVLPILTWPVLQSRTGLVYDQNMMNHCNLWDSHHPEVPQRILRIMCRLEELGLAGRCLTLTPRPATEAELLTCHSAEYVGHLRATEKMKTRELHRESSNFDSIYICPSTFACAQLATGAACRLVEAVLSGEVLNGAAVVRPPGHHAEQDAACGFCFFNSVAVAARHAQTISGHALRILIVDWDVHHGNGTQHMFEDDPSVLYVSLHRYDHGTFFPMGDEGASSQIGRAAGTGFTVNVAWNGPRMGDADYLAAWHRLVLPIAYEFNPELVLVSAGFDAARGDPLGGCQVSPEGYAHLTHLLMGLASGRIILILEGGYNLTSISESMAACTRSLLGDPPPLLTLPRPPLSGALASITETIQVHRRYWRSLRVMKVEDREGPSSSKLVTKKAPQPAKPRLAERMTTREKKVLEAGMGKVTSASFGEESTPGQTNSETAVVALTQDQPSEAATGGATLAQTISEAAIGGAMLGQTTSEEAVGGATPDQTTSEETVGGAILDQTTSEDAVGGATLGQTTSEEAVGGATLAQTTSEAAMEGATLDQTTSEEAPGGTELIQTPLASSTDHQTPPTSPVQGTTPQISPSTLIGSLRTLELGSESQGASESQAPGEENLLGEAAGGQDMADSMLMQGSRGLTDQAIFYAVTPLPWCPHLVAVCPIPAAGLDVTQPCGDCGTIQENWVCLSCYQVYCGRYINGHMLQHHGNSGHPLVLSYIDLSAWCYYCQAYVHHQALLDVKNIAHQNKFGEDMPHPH

No constants are given. Whether binding was seen depends on the method and setting. In cells and extracts the contact can be indirect. Some entries that bind do so weakly or less than the wild type.

In the case of “FLAG-tagged TRIM50 (from UniProt Q86XT4 1-487) (enzyme)”, in the assay with Myc-tagged p62, the binding entry is “binds”.

As for “Myc-tagged p62 (from UniProt Q13501 1-440)”, the binding entry with FLAG-tagged TRIM50 [1] was “binds”. Regarding “EGFP-TRIM50 (from UniProt Q86XT4 1-487) (enzyme)”, in assay [2], the binding result is recorded as “binds”. Turning to “GST-p62 (231–385) (from UniProt Q13501 231-385) (domain or fragment)”, in the assay with FLAG-tagged TRIM50 [3], the binding result is recorded as “binds”. With “GST-p62 (232–370) (from UniProt Q13501 232-370) (domain or fragment)”, the binding result with FLAG-tagged TRIM50 [3] was “binds”. Regarding “histone deacetylase 6, HDAC6 (from UniProt Q9UBN7 1-1215)”, the binding result with FLAG-tagged TRIM50 [4] was “binds”.
